{
  "source": "patent US10206987",
  "target": "T1, TIM2-receptor of a B-cell (UniProt Q8R183)",
  "T1 sequence (looked up)": "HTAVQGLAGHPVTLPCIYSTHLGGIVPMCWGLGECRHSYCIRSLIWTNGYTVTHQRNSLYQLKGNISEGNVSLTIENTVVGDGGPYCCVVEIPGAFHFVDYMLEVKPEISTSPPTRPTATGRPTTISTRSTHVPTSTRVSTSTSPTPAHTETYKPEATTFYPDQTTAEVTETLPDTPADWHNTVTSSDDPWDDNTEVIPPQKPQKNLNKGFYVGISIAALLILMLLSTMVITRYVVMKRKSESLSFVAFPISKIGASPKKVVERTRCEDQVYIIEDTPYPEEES",
  "test": "in vivo lymph node targeting in mice, NIR fluorescence imaging of cy5.5-labelled nanoparticles (no direct binding assay described)",
  "note": "No constants are given. Whether binding was seen depends on the method and setting. Some results given as binding are weak or reduced against the parent protein; the word gives no strength.",
  "data": [
    {"substance": "human ferritin heavy chain protein nanoparticle (from UniProt P02794 1-183)", "values": [
      {"measurement": "binding", "result": "binds"}
    ]}
  ]
}
